Data source: PubChem BioAssay AID686938 (Drosophila RNAi Screening Center, 2013)
In all, the deposit lists about 23,000 reagents; this is a random part of those that have a named target and a result. Over the whole deposit, 75 (0.33%) were called active. 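Raw plate signals without normalisation; calls rest on plate z-scores that were not deposited; ratio present for only 364 wells.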 Not given: the dose of the treatment.

Purpose: 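Looking for CRAC channel components and the factors controlling them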 (primary screen)
System: Drosophila S2R+ cells
Reagent: long dsRNA against Drosophila genes, about 0.25 µg dsRNA per well, roughly 10,000 cells
Duration: 5 days of knock-down before the calcium assay
Conditions: thapsigargin (SERCA pump blocker) to empty calcium stores; entry signal taken 4 min after adding it
Read-out: 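Duplicate raw fluo-4 intensities per well from a plate reader, at rest and four minutes after thapsigargin emptied calcium stores; entry-to-rest ratio filled for only some wells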
Reading the numbers: calcium entry signal: higher = stronger calcium signal after store depletion; entry to resting ratio: higher = more calcium entry relative to resting level; resting calcium signal: higher = higher resting calcium signal
Call rule: 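Called when the plate z-score of the entry-to-rest ratio, mean of duplicates, falls below −3; wells with low overall dye signal (Fmax z below −2) or more than five off-targets excluded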
Meaning of the calls: active = strongly reduced calcium entry; inactive = no strong reduction

| Gene | dsRNA | calcium entry signal, replicate 1 (fluorescence units) | calcium entry signal, replicate 2 (fluorescence units) | entry to resting ratio | resting calcium signal, replicate 1 (fluorescence units) | resting calcium signal, replicate 2 (fluorescence units) | activity call |
| --- | --- | --- | --- | --- | --- | --- | --- |
| vnd | DRSC17360 | 3.57e7 | 5.06e7 | – | 1.71e7 | 1.98e7 | inactive |
| vnd | DRSC18849 | 3.69e7 | 5.65e7 | 2.1 | 1.77e7 | 2.81e7 | inactive |
| vnd | DRSC22487 | 4.44e7 | 2.82e7 | – | 2.35e7 | 1.39e7 | inactive |
| CG31769 | DRSC01361 | 1.88e7 | 2.74e7 | – | 1.05e7 | 1.20e7 | inactive |
| betaNACtes3 | DRSC20183 | 2.68e7 | 3.72e7 | – | 1.45e7 | 1.69e7 | inactive |
| Mal-B1 | DRSC02416 | 3.16e7 | 3.29e7 | – | 1.63e7 | 1.59e7 | inactive |
| CG5171 | DRSC02823 | 4.48e7 | – | – | 2.07e7 | – | inactive |
| CG12493 | DRSC08279 | 3.28e7 | 5.91e7 | – | 1.50e7 | 2.52e7 | inactive |
| Ugt35D1 | DRSC15107 | 3.42e7 | 4.07e7 | 2.1 | 1.62e7 | 1.74e7 | inactive |
| TrpRS | DRSC14097 | 2.28e7 | 2.64e7 | – | 1.16e7 | 1.44e7 | inactive |
| tsl | DRSC17090 | 3.25e7 | 4.09e7 | – | 4.28e7 | 1.87e7 | inactive |
| Vps33B | DRSC15722 | 2.28e7 | 2.34e7 | – | 1.01e7 | 1.10e7 | inactive |
| Polr3G | DRSC21511 | 2.87e7 | 2.74e7 | – | 1.54e7 | 1.24e7 | inactive |
| Mesh1 | DRSC14433 | 2.69e7 | 3.42e7 | – | 1.55e7 | 1.57e7 | inactive |
| CG3557 | DRSC00614 | 3.78e7 | – | – | 2.08e7 | – | inactive |
| CG4563 | DRSC04474 | 4.49e7 | 4.25e7 | – | 2.15e7 | 1.88e7 | inactive |
| CG8379 | DRSC16414 | 4.90e7 | 4.34e7 | – | 2.17e7 | 1.95e7 | inactive |
| rho-4 | DRSC19761 | 3.43e7 | 4.14e7 | – | 1.65e7 | 1.95e7 | inactive |
| rho-4 | DRSC19762 | 3.62e7 | 5.23e7 | – | 1.84e7 | 2.47e7 | inactive |
| dtr | DRSC01847 | 2.13e7 | 3.78e7 | – | 1.08e7 | 1.58e7 | inactive |
| CG31373 | DRSC16052 | 3.86e7 | 2.98e7 | – | 1.82e7 | 1.65e7 | inactive |
| CG31344 | DRSC16069 | 2.92e7 | 4.62e7 | – | 1.60e7 | 7.24e7 | inactive |
| CG12391 | DRSC06147 | 2.67e7 | 2.53e7 | – | 1.26e7 | 1.18e7 | inactive |
| alpha-Spec | DRSC08704 | 3.71e7 | 3.47e7 | – | 1.73e7 | 1.79e7 | inactive |

Part of the list above, reformatted:
Gene	dsRNA	calcium entry signal, replicate 1 (fluorescence units)	calcium entry signal, replicate 2 (fluorescence units)	entry to resting ratio	resting calcium signal, replicate 1 (fluorescence units)	resting calcium signal, replicate 2 (fluorescence units)	activity call
CG31373	DRSC16052	3.86e7	2.98e7		1.82e7	1.65e7	inactive
CG31344	DRSC16069	2.92e7	4.62e7		1.60e7	7.24e7	inactive
